Test results published in PubChem BioAssay AID2551 (National Center for Advancing Translational Sciences (NCATS), 2010).
The whole screen tested about 310,000 compounds, of which about 17,000 (5.5%) were called active. Inconclusive results, whose numbers are uncertain, are shown with a selection of clear calls. Calls come from the whole dose curve; as a rule, active = well fitted inhibition curve with a large enough effect; inconclusive = small, poorly fitted or top-dose-only effect, or effect the other way; inactive = no such curve, though single readings can be large or run the other way. Where the call is inconclusive, the potency comes from a doubtful curve fit. More than one record can exist for a structure, and the calls need not agree.

Chains of the proteins cited; added tags and fusions are not shown. Lines headed by an entry give the natural chain unless they say otherwise; changes in a name come on top.
UniProt P51450: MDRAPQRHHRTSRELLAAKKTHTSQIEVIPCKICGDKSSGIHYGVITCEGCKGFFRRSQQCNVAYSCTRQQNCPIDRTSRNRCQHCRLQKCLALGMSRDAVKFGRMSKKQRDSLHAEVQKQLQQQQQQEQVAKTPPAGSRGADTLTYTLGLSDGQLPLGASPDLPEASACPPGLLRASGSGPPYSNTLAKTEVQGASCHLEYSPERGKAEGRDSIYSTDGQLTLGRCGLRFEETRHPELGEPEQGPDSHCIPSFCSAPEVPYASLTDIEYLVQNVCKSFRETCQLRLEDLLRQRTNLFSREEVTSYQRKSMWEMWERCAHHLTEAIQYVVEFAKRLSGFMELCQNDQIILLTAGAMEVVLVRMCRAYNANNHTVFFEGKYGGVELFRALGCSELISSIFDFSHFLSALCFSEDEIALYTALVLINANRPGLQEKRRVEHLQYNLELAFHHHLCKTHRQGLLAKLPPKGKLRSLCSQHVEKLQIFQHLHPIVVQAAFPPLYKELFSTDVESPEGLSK

target: Nuclear receptor ROR-gamma (Mus musculus) (UniProt P51450); assay: qHTS for inhibitors of ROR gamma transcriptional activity; details: Drosophila S2 Gal4-RORgamma UAS-luciferase reporter, 20 h; activity change, negative = inhibition: at 53.6 µM (top of the series); note: nearly all actives have a fitted effect of over 60% in size
Summary of the method: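 Compounds are pin-transferred onto Drosophila Schneider cells expressing a copper-inducible Gal4–ROR gamma transactivation domain fusion. After 1 hr, copper sulfate is added to 700 uM final; luciferase is read 20 hr later.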
% is set by controls: 0 for no effect and ±100 for the full control effect; potency is the fitted concentration of half-maximal effect.

Row | Compound | Potency | activity change, negative = inhibition
1 | Cc1ccc2cc(C)c3nnc(SCC(=O)N4CCCc5ccccc54)n3c2c1C | inconclusive: 31.6 µM [activator, single point] | –
2 | Cc1ccc(CSCC(=O)NCc2cccs2)cc1 | inconclusive: 7.94 µM [activator, partial curve, poor fit] | –
3 | Cc1cccc(NC(=O)CSc2nc3ccccc3nc2N2CCCCC2)c1 | inconclusive: 14.1 µM [inhibitor, single point] | –
4 | COc1ccccc1CNC(=O)CSc1nn2c(=O)c(C(C)(C)C)nnc2s1 | active: 10 µM | –
5 | CN(C)c1ccc(-c2nccc(NCCN3CCOCC3)n2)cc1 | inconclusive: 1.58 µM [activator, partial curve] | –
6 | CCOC(=O)CN1NC2(CCCCC2)NC1=S | active: 15.8 µM | –
7 | Cc1cccc(CCNS(=O)(=O)c2ccc3c(c2)n(C)c(=O)c(=O)n3C)c1 | inconclusive: 0.316 µM [inhibitor, full curve, poor fit] | –
8 | COc1ccc(CC(=O)NNC(=S)NC(=O)c2cccnc2)cc1 | inconclusive: 14.1 µM [inhibitor, single point] | –
9 | Cc1ccccc1Oc1cc(-n2ncc(Cl)c(Cl)c2=O)ncn1 | active: 1.12 µM | –
10 | CCOc1ccc(NC(=O)c2ccc3snnc3c2)cc1 | inconclusive: 25.1 µM [activator, single point] | –
11 | NCCCCNS(=O)(=O)c1ccc2c(Cl)cccc2c1 | – | inactive: -27.5%
12 | CN(C)S(=O)(=O)c1cccc(C(=O)OCC(=O)c2ccc3c(c2)NC(=O)CO3)c1 | inconclusive: 0.708 µM [activator, full curve, poor fit] | –
13 | CC(=O)Nc1cccc(Nc2nc(-c3ccccc3)nc3ccccc23)c1 | – | inactive: 28.1%
14 | COc1ccc(NC(=O)C2C(c3ccccc3)C2(Cl)Cl)c(OC)c1 (stereo not given) | inconclusive: 11.2 µM [activator, partial curve, poor fit] | –
15 | c1ccc(COn2c(-c3ccccc3)nc3c2CCc2nonc2-3)cc1 | – | inactive: 13.2%
16 | CC(C)Oc1ccc(CCNC(=O)CC2C(=O)NCCN2C)cc1 (stereo not given) | – | inactive: 1.28%
17 | COc1cc(OC)c(NC(=O)C2CCCN2C(=O)OCc2ccccc2)cc1Cl (stereo not given) | – | inactive: -3.37%
18 | C/C=C\C1=CCCC1Nc1ncnc2ccc(-c3c(C)noc3C)cc12 (stereo not given) | active: 11.2 µM | –
19 | Cc1cccc(-n2c(C)c(-c3ccccc3)[nH]c2=S)c1 | active: 1.12 µM | –
20 | N/C(=N\OC(=O)c1cc([N+](=O)[O-])ccc1Cl)c1ccccn1 | active: 3.98 µM | –
21 | CN1CCC(=NNC(=O)c2ccc(N(Cc3ccccc3Cl)S(C)(=O)=O)cc2)CC1 | inconclusive: 35.5 µM [inhibitor, single point] | –
22 | CCOC(=O)c1sc(NC(=O)CSc2nnc(-c3ccc(OC)cc3)n2CCOC)nc1C | inconclusive: 17.8 µM [activator, partial curve, poor fit] | –
23 | CC(=O)N1N=C(c2ccccc2)CC1c1cn(Cc2ccccc2)c2ccccc12 (stereo not given) | inconclusive: 15.8 µM [activator, single point] | –
24 | COCCn1c(=S)[nH]c2ccccc21 | inconclusive: 15.8 µM [inhibitor, single point] | –
25 | Cc1ccc2nc(N/N=C/c3ccccc3F)nc(-c3ccccc3)c2c1 | inconclusive: 5.01 µM [inhibitor, partial curve, poor fit] | –

Row | Compound | Potency | activity change, negative = inhibition
26 | O=c1[nH]c(CN(CCc2ccccc2)S(=O)(=O)c2ccc(Cl)cc2)nc2ccccc12 | active: 4.47 µM | –
27 | Oc1ccc(NCc2cccs2)cc1 | inconclusive: 35.5 µM [inhibitor, single point] | –
28 | O=c1c(-c2ccc(Cl)cc2)cnc2n1CCS2 | inconclusive: 11.2 µM [activator, partial curve] | –
29 | Cc1cc(C)n(CC(=O)N/N=C/c2cc([N+](=O)[O-])ccc2O)n1 | active: 2.82 µM | –
30 | COC(=O)c1cccc(NS(=O)(=O)c2ccc(OC)cc2)c1C | inconclusive: 35.5 µM [activator, single point] | –
31 | COc1cc2c(cc1OC)C1O[C@](CCCCN3C(=O)c4ccccc4C3=O)(C2)OC2=C1C(=O)c1ccccc1C2=O | – | inactive: 31% [at 10 µM]
32 | Cc1cc(Br)ccc1NC(=O)CNC(=O)Cn1ncc(Cl)c(Cl)c1=O | – | inactive: -30.5%
33 | CNC(=S)N1CCN(C(c2ccccc2)c2ccccc2)CC1 | – | inactive: -41.4%
34 | COc1cc(NC(=O)Cc2ccc(F)cc2)cc(OC)c1OC | inconclusive: 14.1 µM [activator, single point] | –
35 | S=C(Nc1ccccc1Cl)N(Cc1ccccc1)Cc1cccnc1 | inconclusive: 25.1 µM [inhibitor, single point] | –
36 | C[C@H](NC(=O)c1nc[nH]c1C(=O)N[C@@H](Cc1ccccc1)C(=O)OC(C)(C)C)C(=O)OC(C)(C)C | active: 11.2 µM | –
37 | CS(=O)(=O)N1CCC(C(=O)NCc2ccc(F)cc2Cl)CC1 | inconclusive: 3.16 µM [inhibitor, single point] | –
38 | Cc1[nH]c2ccccc2c1C(c1ccccn1)N1CCC(C)CC1 (stereo not given) | – | inactive: -12.3%
39 | Clc1c(CSc2nc3ccccc3o2)nc2sccn12 | inconclusive: 0.0501 µM [activator, partial curve, poor fit] | –
40 | CC(NC(=O)c1ccccc1F)c1nnc(SCC(=O)NC2=NCCS2)n1C (stereo not given) | – | inactive: -17.3%
41 | Cc1cccc(/C(N)=N/OC(=O)c2ccncc2)c1 | active: 7.08 µM | –
42 | O=C(NC12CC3CC(CC(C3)C1)C2)c1ccc(-c2cccc(Cl)c2)o1 | – | inactive: -0.0371%
43 | CCc1ccc(Nc2n[n+](-c3ccccc3)c(-c3c(Cl)cccc3Cl)s2)cc1 | active: 11.2 µM | –
44 | C(=C\c1ccccc1)/CN1CCN(Cc2ccc3c(c2)OCO3)CC1 | inconclusive: 2.82 µM [inhibitor, single point] | –
45 | CC1Cc2ccccc2N1C(=O)COC(=O)c1c2c(nc3ccccc13)CCCCC2 (stereo not given) | – | inactive: 20.3% [at 10 µM]
46 | O=C(CN1C(=O)c2ccccc2C1=O)Nc1ccc(-c2nc3ccccc3o2)cc1 | – | inactive: -2.56%
47 | COc1cc(-c2c(C#N)c(N)nc3c2c(C)nn3-c2ccc(C)c(C)c2)cc(OC)c1OC | – | inactive: 15.5%
48 | Cc1[nH]c2ccccc2c1/C=N/NC(=O)c1ccccc1 | – | inactive: 15.6%
49 | CCN(CC)c1ccc(/C=N/OCC(=O)N2CCCc3ccccc32)cc1 | inconclusive: 8.91 µM [inhibitor, partial curve] | –
50 | CCc1ccccc1NC(=S)N1N=CCC1c1ccccc1 (stereo not given) | active: 3.16 µM | –

Row | Compound | Potency | activity change, negative = inhibition
51 | O=C(N/N=C/c1cccc(O)c1)c1ccc2c(c1)OCCO2 | active: 3.16 µM | –
52 | O=C(N/C=C/c1ccco1)NCc1ccccc1 | – | inactive: -25.4%
53 | Cc1ccc(C)c(NC(=S)Nc2cccc3cnccc23)c1 | inconclusive: 35.5 µM [inhibitor, single point] | –
54 | COC(=O)c1ccc(NC(=O)c2cc[n+]([O-])cc2)cc1 | inconclusive: 0.0079 µM [inhibitor, full curve, poor fit] | –
55 | CN=c1scc(C)n1/N=C/c1ccc(O)cc1 | inconclusive: 0.316 µM [inhibitor, partial curve] | –
56 | CCOc1ccc(NC(=O)CN(C)C(=O)c2ccc(=O)[nH]c2)cc1OCC | active: 11.2 µM | –
57 | COc1ccc(C(=O)/C=C/c2ccccc2F)c(OC(=O)c2ccc([N+](=O)[O-])cc2)c1 | inconclusive: 35.5 µM [inhibitor, single point] | –
58 | O=C(Nc1ccccc1Cl)OCc1cncs1 | – | inactive: 11.5%
59 | COc1cc2cc(C(c3nnnn3C3CCCC3)N3CCCCC3)c(=O)[nH]c2cc1OC (stereo not given) | – | inactive: -6.69%
60 | Cc1ccc(S(=O)(=O)N2CCN(C(C)C(=O)N3CCCc4ccccc43)CC2)cc1 (stereo not given) | inconclusive: 11.2 µM [activator, partial curve] | –
61 | CC1(C)Cc2[nH]c(=S)c(C#N)cc2CO1 | active: 20 µM | –
62 | CN1CCCN(C(c2ccccc2)c2ccc(Cl)cc2)CC1 (stereo not given) | active: 10 µM | inactive: 1.15% [at 10 µM]
63 | COc1ccc(-n2c(=O)c(-c3cc(F)cc(F)c3)nc3cnc(N4CCNCC4)nc32)cc1 | inconclusive: 25.1 µM [inhibitor, single point] | –
64 | CCCCCn1c(NC(=O)c2ccco2)c(S(=O)(=O)c2ccc(C)cc2)c2nc3ccccc3nc21 | inconclusive: 31.6 µM [activator, single point] | –
65 | O=C(O)/C=C/c1cn(-c2ccccc2)nc1-c1cccc([N+](=O)[O-])c1 | inconclusive: 7.94 µM [activator, partial curve] | –
66 | CCN1CCN(c2ncc3c(n2)CC(c2cc(OC)c(OC)c(OC)c2)CC3=O)CC1 (stereo not given) | – | inactive: 18.9%
67 | O=C(N/N=C/c1oc(O)c2ccccc12)c1ccccc1O | inconclusive: 11.2 µM [inhibitor, partial curve, poor fit] | –
68 | Cc1cccc(N2CCN(S(=O)(=O)c3ccc4c(c3)n(C)c(=O)c(=O)n4C)CC2C)c1 (stereo not given) | – | inactive: -0.253%
69 | COCCn1nnnc1CN(CCc1ccc(OC)c(OC)c1)Cc1cc2ccc(C)cc2[nH]c1=O | – | inactive: -1.59%
70 | O=C(Nc1nc(-c2cccs2)cs1)c1ccco1 | inconclusive: 1.26 µM [activator, full curve, poor fit] | –
71 | O=C(Nc1ccccn1)C(=O)Nc1ccccn1 | active: 10 µM | –
72 | c1ccc(CC2CCN(Cc3nc(-c4ccccc4)no3)CC2)cc1 | inconclusive: 0.005 µM [inhibitor, full curve, poor fit] | –
73 | COc1ccc([N+](=O)[O-])cc1NC(=O)C(C)OC(=O)/C=C/c1ccco1 (stereo not given) | inconclusive: 14.1 µM [activator, partial curve, poor fit] | –
74 | Cc1nn(-c2ccccc2)c(Oc2ccc(F)cc2)c1/C=N/n1cnnc1 | inconclusive: 5.01 µM [inhibitor, single point] | –

3 records picked at random from those above:
Row | Compound | Potency | activity change, negative = inhibition
72 | c1ccc(CC2CCN(Cc3nc(-c4ccccc4)no3)CC2)cc1 | inconclusive: 0.005 µM [inhibitor, full curve, poor fit] | –
70 | O=C(Nc1nc(-c2cccs2)cs1)c1ccco1 | inconclusive: 1.26 µM [activator, full curve, poor fit] | –
71 | O=C(Nc1ccccn1)C(=O)Nc1ccccn1 | active: 10 µM | –
